Data as given in PMC8788068.
No constants are given. Whether binding was seen depends on the method and setting. In cells and extracts the contact can be indirect. Some binding calls cover weakened binding; strength is not graded here.

Chains of the proteins cited; added tags and fusions are not shown.
UniProt P15924: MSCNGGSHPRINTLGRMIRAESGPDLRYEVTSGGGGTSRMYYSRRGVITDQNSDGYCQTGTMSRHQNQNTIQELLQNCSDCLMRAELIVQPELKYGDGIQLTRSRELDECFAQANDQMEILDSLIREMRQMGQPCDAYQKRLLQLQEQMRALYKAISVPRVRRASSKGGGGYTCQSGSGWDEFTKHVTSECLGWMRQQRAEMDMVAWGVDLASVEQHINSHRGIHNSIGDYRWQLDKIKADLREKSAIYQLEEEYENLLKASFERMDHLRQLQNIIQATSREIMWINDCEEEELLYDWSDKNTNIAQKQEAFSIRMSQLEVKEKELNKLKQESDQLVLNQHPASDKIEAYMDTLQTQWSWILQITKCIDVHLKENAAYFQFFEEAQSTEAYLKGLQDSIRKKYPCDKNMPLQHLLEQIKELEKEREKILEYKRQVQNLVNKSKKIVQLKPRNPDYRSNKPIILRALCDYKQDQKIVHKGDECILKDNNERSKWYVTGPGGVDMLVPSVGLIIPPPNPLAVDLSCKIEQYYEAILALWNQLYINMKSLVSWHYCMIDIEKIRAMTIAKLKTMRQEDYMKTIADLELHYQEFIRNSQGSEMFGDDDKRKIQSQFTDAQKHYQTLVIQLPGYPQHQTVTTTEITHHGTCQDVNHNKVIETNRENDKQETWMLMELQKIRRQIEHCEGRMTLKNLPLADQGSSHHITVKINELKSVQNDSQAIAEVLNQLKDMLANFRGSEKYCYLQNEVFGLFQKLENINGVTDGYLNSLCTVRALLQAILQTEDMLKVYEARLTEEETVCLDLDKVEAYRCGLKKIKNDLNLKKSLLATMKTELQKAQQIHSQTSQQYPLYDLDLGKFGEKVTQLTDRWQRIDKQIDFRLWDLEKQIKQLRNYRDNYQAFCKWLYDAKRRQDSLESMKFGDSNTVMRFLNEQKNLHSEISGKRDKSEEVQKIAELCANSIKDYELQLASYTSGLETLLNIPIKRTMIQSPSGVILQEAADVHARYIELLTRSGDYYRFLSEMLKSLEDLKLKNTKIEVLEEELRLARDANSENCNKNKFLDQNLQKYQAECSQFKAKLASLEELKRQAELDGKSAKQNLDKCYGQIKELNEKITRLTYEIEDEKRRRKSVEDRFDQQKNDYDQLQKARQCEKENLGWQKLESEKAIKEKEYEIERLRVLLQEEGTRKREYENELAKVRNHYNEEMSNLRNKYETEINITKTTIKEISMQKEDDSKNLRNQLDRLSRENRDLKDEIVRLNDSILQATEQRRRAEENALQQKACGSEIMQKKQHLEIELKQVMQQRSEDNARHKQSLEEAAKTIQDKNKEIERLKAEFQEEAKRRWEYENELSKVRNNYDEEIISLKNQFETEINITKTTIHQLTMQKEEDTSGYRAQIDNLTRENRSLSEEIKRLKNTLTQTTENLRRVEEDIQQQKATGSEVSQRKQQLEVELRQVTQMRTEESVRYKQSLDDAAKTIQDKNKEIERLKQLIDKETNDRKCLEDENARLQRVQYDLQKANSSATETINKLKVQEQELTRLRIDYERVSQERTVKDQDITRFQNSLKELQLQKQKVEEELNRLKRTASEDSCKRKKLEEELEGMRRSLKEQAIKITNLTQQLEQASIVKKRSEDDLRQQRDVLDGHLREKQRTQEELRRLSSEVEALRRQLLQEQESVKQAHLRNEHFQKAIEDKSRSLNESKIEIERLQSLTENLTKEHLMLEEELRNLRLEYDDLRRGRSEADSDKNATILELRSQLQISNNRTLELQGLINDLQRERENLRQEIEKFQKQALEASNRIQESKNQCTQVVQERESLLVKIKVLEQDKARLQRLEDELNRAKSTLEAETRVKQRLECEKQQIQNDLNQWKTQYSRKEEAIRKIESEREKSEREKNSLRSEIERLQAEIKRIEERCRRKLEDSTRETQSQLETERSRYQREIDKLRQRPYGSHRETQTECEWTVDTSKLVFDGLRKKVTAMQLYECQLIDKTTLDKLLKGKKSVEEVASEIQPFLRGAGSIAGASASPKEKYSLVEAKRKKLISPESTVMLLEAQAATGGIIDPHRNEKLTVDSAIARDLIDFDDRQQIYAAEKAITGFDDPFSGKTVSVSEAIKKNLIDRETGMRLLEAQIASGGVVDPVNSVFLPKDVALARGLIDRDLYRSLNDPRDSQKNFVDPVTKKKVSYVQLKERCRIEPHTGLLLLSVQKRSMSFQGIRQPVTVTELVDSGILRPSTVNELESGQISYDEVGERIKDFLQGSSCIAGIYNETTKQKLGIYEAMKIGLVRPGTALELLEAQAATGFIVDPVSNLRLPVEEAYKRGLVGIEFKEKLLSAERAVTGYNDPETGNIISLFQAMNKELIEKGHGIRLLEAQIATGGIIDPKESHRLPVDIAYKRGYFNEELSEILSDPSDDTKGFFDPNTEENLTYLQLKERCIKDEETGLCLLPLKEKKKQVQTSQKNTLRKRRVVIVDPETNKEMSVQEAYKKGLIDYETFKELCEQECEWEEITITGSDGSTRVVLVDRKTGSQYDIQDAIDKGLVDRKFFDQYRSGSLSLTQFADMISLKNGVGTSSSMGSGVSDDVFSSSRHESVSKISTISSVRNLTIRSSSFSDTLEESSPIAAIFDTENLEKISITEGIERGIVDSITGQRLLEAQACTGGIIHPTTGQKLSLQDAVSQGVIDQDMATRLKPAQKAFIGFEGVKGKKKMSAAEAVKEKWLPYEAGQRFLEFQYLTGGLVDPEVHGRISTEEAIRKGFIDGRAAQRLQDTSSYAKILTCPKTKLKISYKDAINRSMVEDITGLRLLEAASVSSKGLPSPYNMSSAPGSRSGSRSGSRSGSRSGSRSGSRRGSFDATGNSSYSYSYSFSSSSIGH

Columns and labels:
Test in all cases: co-IP; lysates of MCF7-KRT13 and HCC1954-shKRT13 cells; immunoprecipitation with anti-KRT13, anti-PG or anti-DSP antibody, Protein A/G PLUS-Agarose, 4 °C overnight, rinsed four times with cell lysis buffer; western blot
[1] = target: T1, Keratin 13 (KRT13), endogenous in HCC1954 cells (human (endogenous in HCC1954)) (UniProt P13646)
T1 sequence: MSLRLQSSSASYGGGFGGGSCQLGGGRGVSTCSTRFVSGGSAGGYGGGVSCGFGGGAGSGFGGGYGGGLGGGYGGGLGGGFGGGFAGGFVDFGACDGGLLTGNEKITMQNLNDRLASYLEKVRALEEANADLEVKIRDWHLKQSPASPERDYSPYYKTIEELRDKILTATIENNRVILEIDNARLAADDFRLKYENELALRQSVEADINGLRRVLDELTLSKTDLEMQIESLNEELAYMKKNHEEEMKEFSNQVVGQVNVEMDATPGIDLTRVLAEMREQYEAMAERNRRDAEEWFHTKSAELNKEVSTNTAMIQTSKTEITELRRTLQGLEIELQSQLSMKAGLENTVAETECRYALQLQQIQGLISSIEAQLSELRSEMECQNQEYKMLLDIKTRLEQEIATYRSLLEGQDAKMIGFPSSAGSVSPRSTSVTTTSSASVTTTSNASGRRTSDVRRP

[2] = target: T2, Keratin 13 (KRT13), overexpressed in MCF7 cells (MCF7-KRT13) (human) (UniProt P13646)
T2 sequence: T1 sequence

[3] = target: T3, plakoglobin (PG, γ-catenin) (human (endogenous in MCF7 and HCC1954)) (UniProt P14923)
T3 sequence: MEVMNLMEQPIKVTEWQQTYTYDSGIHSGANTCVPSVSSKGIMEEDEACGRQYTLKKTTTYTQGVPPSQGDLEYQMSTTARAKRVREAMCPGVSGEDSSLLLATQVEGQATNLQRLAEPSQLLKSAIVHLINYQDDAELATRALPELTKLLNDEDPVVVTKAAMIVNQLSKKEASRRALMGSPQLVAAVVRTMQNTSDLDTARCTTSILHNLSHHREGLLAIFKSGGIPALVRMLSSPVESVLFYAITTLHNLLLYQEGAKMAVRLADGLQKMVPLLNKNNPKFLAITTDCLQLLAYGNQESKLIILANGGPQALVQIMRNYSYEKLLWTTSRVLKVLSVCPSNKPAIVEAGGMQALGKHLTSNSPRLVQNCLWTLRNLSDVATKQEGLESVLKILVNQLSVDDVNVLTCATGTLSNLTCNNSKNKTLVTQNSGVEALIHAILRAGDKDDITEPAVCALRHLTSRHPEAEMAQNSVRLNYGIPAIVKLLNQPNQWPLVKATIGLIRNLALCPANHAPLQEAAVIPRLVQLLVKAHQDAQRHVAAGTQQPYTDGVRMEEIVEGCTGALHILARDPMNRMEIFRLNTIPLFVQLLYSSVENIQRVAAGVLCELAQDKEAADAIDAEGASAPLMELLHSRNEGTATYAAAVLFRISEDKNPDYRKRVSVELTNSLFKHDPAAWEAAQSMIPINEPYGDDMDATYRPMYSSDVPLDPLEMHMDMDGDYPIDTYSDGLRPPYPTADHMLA

Measured: binding

desmoplakin (DSP) (from UniProt P15924 1-2871)
binds: all assays above
